Results deposited as PubChem BioAssay AID1053208 (Peter MacCallum Cancer Centre, 2014)
This is a random part of about 17,000 reagents. 788 of all reagents (4.7%) were called active. 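Calls rest on z-score classes alone; an extra cut-off of viability at most 70% of control was not applied to them.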 Not all columns of the deposit are shown.

- Screen: 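Find knock-downs that sensitise mouse osteosarcoma cells to doxorubicin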 (primary screen)
- Cell system: mouse osteosarcoma cells, early-passage culture from an engineered mouse model of fibroblastic bone tumour
- Knock-down reagent: siRNA pool against mouse genes, 40 nM
- Timing: about 120 h (48 h before drug, then 72 h with drug)
- Conditions: doxorubicin 100 nM for 72 h, roughly 30-40% inhibitory dose
- Detection: 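Luminescent ATP signal taken as viability with or without 100 nM doxorubicin for 72 h; mean of two wells set against non-targeting siRNA and turned into robust z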
- Direction: viability z-score with doxorubicin: higher = more viable cells under doxorubicin; viability z-score without drug: higher = more viable cells with knock-down alone
- Active means: 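Called active if knock-down leaves viability unchanged without drug (z within -2 to 2) but lowers it with doxorubicin (z at or under -2)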

Zdhhc21 (zinc finger, DHHC domain containing 21) showed combined z-score class high cell count with doxorubicin only; viability z-score with doxorubicin 2.81; viability z-score without drug 0.84; inactive.
For Smc1b (structural maintenance of chromosomes 1B), the values are combined z-score class no change with or without drug; viability z-score with doxorubicin 0.67; viability z-score without drug 0; inactive.
Against Zpr1 (ZPR1 zinc finger) the deposit lists combined z-score class no change with or without drug; viability z-score with doxorubicin 0.56; viability z-score without drug -0.67; inactive.
Depletion of Dema1 (DPM1 ER membrane anchor 1) resulted in: combined z-score class no change with or without drug; viability z-score with doxorubicin 0.22; viability z-score without drug -0.51; inactive.
Against Srsf5 (serine and arginine-rich splicing factor 5) the deposit lists combined z-score class no change with or without drug; viability z-score with doxorubicin -0.67; viability z-score without drug -0.67; inactive.
Depletion of Ccl1 (C-C motif chemokine ligand 1) came out at: combined z-score class no change with or without drug; viability z-score with doxorubicin -0.45; viability z-score without drug 0.84; inactive.
For Slc6a11, the values are combined z-score class no change with or without drug; viability z-score with doxorubicin 1.01; viability z-score without drug 0.51; inactive.
After knock-down of Sec22c (SEC22 homolog C, vesicle trafficking protein) the results were combined z-score class no change with or without drug; viability z-score with doxorubicin 0.22; viability z-score without drug 1.52; inactive.
Knock-down of Mmp23 (matrix metallopeptidase 23) gave: combined z-score class low cell count with doxorubicin only; viability z-score with doxorubicin -2.02; viability z-score without drug 0.51; active.
Depletion of Zfp33b (zinc finger protein 33B) came out at: combined z-score class no change with or without drug; viability z-score with doxorubicin 0.22; viability z-score without drug 1.85; inactive.
Knock-down of Kctd2 (potassium channel tetramerisation domain containing 2) gave: combined z-score class no change with or without drug; viability z-score with doxorubicin -0.34; viability z-score without drug 0.34; inactive.
Depletion of Shld2 (shieldin complex subunit 2) resulted in: combined z-score class no change with or without drug; viability z-score with doxorubicin -0.56; viability z-score without drug -1.18; inactive.
Knock-down of Plxnc1 (plexin C1) came out at: combined z-score class no change with or without drug; viability z-score with doxorubicin 0.45; viability z-score without drug -0.51; inactive.
With knock-down of Hyal2 (hyaluronoglucosaminidase 2), the record shows combined z-score class no change with or without drug; viability z-score with doxorubicin -0.22; viability z-score without drug -1.52; inactive.
For Abhd16b (abhydrolase domain containing 16B), the values are combined z-score class no change with or without drug; viability z-score with doxorubicin -1.12; viability z-score without drug -0.51; inactive.
Depletion of Or11j4 (olfactory receptor family 11 subfamily J member 4) resulted in: combined z-score class no change with or without drug; viability z-score with doxorubicin -0.45; viability z-score without drug -0.84; inactive.
With knock-down of Chm (CHM Rab escort protein), the record shows combined z-score class no change with or without drug; viability z-score with doxorubicin -0.34; viability z-score without drug -1.18; inactive.
Cpa4 (carboxypeptidase A4) scored combined z-score class high cell count with doxorubicin only; viability z-score with doxorubicin 2.02; viability z-score without drug 1.35; inactive.
Depletion of Pxt1 (peroxisomal, testis specific 1) gave: combined z-score class no change with or without drug; viability z-score with doxorubicin 1.35; viability z-score without drug 1.52; inactive.

A run of entries of the results above, as a working copy:
Sec22c (SEC22 homolog C, vesicle trafficking protein) → combined z-score class = no change with or without drug; viability z-score with doxorubicin = 0.22; viability z-score without drug = 1.52; Outcome = inactive
Mmp23 (matrix metallopeptidase 23) → combined z-score class = low cell count with doxorubicin only; viability z-score with doxorubicin = -2.02; viability z-score without drug = 0.51; Outcome = active
